# Laboratory results from PubChem BioAssay (EPA / NIEHS).
# Chains of the proteins cited; added tags and fusions are not shown. Lines headed by an entry give the natural chain unless they say otherwise; changes in a name come on top.
# UniProt P30536, whole entry, looked up: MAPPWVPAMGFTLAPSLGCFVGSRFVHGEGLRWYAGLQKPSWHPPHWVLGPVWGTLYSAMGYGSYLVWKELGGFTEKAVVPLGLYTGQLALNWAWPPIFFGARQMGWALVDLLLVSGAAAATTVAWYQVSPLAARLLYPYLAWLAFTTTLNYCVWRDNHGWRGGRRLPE
# UniProt P08219: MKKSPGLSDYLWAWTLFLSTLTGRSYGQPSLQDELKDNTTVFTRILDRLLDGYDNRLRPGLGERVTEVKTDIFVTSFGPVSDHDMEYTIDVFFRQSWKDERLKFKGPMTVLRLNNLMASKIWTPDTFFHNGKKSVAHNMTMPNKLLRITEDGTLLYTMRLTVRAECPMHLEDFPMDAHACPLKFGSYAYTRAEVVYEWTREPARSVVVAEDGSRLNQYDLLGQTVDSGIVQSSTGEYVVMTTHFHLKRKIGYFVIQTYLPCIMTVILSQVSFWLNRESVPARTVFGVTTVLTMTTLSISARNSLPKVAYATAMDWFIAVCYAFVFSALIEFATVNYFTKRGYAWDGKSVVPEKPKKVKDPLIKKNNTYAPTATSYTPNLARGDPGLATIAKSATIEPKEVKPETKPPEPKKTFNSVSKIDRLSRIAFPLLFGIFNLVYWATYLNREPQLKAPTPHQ
# UniProt P03372, whole entry, looked up: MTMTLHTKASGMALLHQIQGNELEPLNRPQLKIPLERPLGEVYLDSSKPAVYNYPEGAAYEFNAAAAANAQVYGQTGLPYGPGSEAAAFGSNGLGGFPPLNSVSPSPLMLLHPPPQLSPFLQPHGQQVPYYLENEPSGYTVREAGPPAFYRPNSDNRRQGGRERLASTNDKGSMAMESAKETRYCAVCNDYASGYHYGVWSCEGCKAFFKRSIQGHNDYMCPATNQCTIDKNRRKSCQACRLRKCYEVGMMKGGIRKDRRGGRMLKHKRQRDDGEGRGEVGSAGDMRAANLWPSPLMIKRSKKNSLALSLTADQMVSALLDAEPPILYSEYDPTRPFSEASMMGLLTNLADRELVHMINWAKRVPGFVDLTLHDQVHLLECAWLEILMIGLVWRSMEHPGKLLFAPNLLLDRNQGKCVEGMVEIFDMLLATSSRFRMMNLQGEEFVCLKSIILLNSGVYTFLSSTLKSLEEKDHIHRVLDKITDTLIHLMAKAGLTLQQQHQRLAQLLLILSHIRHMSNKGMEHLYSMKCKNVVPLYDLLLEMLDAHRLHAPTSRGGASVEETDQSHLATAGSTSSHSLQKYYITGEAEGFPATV
# UniProt P10275: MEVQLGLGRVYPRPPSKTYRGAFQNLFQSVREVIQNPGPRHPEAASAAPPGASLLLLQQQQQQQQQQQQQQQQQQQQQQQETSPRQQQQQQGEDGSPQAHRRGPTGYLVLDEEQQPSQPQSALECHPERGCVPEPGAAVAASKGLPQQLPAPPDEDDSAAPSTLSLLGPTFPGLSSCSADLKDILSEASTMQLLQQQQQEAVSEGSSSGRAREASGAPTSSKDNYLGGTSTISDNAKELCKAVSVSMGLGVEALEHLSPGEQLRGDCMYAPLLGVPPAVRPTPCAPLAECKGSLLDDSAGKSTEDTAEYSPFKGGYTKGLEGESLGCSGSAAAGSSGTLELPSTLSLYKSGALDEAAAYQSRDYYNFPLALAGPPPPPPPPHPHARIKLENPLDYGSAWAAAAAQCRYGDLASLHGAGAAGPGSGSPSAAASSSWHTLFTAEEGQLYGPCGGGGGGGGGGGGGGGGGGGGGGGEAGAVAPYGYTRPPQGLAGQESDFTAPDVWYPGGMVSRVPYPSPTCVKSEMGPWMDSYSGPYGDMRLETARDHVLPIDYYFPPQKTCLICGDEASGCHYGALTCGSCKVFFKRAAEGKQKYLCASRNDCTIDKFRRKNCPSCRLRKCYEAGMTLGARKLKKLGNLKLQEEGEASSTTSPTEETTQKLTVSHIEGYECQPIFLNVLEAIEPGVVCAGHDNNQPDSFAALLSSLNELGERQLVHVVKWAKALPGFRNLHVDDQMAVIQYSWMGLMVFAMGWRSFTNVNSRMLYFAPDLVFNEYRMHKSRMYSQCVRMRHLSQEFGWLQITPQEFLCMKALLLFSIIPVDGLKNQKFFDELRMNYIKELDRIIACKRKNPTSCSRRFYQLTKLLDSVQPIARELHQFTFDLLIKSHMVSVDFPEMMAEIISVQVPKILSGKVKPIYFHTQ
# UniProt P31749: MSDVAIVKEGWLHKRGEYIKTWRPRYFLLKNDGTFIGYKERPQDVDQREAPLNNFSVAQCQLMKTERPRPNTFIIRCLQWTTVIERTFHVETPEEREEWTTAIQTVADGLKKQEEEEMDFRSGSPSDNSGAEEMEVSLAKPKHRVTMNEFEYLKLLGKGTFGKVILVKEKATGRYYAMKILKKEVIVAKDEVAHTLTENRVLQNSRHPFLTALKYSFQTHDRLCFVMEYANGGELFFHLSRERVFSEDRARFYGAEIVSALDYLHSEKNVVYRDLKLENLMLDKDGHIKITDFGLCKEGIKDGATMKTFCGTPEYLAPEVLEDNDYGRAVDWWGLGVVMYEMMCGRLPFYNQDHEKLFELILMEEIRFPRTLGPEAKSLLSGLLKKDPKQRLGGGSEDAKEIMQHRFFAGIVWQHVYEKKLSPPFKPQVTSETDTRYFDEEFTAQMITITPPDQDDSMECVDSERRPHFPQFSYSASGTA
# UniProt Q07869: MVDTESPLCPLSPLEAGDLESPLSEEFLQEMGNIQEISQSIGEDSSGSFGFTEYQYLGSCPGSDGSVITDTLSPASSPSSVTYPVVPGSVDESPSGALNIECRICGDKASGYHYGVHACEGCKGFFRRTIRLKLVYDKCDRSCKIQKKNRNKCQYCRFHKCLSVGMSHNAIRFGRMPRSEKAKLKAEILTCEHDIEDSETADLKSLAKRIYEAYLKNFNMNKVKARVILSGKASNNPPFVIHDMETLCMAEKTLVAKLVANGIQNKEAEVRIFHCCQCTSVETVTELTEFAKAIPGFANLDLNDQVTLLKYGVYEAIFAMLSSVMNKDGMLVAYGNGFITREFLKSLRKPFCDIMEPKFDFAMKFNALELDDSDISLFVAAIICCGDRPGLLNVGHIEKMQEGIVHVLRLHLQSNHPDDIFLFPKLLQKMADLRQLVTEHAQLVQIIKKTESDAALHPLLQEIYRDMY
# UniProt P19785, whole entry, looked up: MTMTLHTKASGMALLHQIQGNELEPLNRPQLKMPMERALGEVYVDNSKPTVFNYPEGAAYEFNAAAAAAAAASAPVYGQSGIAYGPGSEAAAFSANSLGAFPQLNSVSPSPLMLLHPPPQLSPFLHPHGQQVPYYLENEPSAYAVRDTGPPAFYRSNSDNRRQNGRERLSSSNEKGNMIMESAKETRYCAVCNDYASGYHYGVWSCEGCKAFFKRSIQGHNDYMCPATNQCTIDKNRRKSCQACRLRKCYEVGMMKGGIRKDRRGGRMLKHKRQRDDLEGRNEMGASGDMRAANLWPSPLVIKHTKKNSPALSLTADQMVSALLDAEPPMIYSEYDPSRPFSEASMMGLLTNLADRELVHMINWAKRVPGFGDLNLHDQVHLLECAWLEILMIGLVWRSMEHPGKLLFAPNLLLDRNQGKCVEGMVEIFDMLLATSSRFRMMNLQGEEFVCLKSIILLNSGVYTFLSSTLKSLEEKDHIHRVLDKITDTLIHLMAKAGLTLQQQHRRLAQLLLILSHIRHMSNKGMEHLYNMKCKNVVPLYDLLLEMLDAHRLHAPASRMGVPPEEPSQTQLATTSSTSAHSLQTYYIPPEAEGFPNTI
# UniProt P10276, whole entry, looked up: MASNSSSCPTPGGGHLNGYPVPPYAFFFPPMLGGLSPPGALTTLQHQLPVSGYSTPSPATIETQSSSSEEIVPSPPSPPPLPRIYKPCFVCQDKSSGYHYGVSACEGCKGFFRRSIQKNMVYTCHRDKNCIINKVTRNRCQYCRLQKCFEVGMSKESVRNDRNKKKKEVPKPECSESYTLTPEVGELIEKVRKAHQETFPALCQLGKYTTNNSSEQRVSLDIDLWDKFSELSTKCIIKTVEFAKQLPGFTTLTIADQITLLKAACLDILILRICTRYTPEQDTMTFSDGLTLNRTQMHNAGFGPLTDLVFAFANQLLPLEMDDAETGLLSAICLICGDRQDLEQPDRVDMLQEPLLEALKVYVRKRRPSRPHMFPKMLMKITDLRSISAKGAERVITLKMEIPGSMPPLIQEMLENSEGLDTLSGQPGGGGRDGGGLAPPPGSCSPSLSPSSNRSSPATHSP
# UniProt P04386, whole entry, looked up: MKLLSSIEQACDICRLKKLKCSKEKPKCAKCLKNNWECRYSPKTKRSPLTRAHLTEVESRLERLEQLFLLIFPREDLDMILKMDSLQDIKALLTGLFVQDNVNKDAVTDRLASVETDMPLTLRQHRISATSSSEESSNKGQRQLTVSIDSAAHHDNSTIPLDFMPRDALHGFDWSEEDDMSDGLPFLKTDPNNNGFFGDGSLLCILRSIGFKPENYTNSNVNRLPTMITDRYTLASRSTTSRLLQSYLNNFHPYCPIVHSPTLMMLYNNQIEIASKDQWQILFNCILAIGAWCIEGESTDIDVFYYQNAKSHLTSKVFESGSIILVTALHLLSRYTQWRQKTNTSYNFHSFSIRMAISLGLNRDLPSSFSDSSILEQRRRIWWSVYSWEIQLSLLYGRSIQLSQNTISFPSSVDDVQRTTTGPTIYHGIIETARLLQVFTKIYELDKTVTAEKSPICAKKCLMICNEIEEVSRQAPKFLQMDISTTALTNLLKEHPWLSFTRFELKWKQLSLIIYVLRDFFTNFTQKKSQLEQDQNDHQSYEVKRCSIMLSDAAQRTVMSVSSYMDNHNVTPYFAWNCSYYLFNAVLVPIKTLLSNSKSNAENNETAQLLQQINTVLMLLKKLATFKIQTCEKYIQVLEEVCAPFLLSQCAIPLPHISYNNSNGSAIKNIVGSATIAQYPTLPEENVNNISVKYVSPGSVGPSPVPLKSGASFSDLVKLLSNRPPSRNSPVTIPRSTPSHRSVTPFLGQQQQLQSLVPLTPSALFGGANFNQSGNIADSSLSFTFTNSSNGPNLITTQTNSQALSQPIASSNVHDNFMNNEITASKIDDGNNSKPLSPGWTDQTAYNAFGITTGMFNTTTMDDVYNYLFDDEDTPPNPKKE
# UniProt P10827: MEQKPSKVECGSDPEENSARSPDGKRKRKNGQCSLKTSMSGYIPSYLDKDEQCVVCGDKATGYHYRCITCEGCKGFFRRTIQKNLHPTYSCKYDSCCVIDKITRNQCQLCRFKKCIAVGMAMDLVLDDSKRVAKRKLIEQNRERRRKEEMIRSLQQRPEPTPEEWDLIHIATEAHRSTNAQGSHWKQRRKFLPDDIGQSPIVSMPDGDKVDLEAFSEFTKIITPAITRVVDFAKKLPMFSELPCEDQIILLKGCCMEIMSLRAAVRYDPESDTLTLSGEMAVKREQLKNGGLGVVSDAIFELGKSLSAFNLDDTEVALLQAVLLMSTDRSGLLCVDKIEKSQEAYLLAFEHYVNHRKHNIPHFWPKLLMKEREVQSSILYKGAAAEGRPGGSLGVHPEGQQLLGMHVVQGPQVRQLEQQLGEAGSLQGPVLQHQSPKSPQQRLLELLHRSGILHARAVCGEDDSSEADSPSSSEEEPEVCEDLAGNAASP
# UniProt Q98867: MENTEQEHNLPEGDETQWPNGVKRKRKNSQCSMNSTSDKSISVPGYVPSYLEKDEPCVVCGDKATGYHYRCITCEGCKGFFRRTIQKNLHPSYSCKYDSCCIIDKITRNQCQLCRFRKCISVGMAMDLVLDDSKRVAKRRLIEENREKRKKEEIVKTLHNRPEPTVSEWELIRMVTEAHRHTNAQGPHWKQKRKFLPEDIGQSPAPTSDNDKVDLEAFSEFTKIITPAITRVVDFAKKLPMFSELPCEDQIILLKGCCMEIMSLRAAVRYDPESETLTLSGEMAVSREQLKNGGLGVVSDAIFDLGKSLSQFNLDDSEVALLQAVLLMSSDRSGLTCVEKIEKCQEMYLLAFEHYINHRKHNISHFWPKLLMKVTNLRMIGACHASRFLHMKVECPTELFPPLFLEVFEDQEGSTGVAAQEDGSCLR
# UniProt P20813: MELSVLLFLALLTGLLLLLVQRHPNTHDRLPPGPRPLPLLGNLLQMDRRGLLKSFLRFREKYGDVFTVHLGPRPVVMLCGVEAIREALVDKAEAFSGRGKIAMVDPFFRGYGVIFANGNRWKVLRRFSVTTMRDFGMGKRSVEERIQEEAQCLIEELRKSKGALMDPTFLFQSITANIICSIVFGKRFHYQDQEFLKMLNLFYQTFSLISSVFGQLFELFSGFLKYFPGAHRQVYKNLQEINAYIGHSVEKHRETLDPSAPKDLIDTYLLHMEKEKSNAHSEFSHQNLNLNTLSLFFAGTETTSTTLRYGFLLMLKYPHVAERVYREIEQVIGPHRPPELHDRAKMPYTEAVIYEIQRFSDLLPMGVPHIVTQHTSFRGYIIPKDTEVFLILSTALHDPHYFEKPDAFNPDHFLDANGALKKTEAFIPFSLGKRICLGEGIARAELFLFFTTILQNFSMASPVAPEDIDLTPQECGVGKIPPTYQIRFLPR
# Inconclusive means that the source gave no clear call. Such entries were picked first, then a sample of the others. For some assays here: Potencies of inconclusive entries are doubtful fits and often do not repeat. Calls of active or inactive are those of the source. How the source made its calls: active means hit-call score of the fitted dose curve at least 0.9, where 1 is the maximum; inconclusive means response in the unintended direction; inactive means score below 0.9.
# What was measured:
# [1] = Tanguay_ZF_120hpf_SNOU_legacy: (Legacy) Oregon State University Tanguay Lab 120 Hour Post-fertilization zebrafish Assay for Snout Malformation (AID 2283637)
# Method in brief: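 Snout malformation read as a yes/no call on brightfield images of 120 hpf larvae (Tropical 5D strain). Static exposure began at 6 hpf on dechorionated embryos in 0.64% DMSO, with gain of signal analysed versus DMSO controls.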
# [2] = Tanguay_ZF_120hpf_JAW_legacy: (Legacy) Oregon State University Tanguay Lab 120 Hour Post-fertilization zebrafish Assay for Jaw Malformation (AID 2283638);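 further: active means more embryos with jaw malformation than DMSO controls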
# Method in brief: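 Wild-type 5D embryos, chorion removed at 4 hpf, dosed singly from 6 hpf; 28C static, sealed, foil-covered, to 120 hpf. Endpoint: jaw defect yes/no (brightfield); mortality excludes scoring.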
# [3] = CCTE_Mundy_HCI_Cortical_NOG_NeuronCount: CCTE's Neurite Outgrowth Assay in rat cortical cells for Neuron Count, Mundy Lab (AID 2284236);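 further: neurons counted by imaging betaIII-tubulin and Hoechst stained cortical cells; cells exposed to compound for about 48 hours before fixation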
# Method in brief: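 Read-out: neuron number by high-content imaging of betaIII-tubulin (Alexa Fluor-488) and Hoechst-labelled rat primary cortical cells.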
# [4] = biological target: human Peripheral-type Benzodiazepine Receptor (PBR), TSPO (gene 706) (UniProt P30536); experiment: NVS_MP_hPBR: NovaScreen (NVS) Membrane Protein Assay for human Peripheral-type Benzodiazepine Receptor (PBR) (AID 2283331);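 further: hits reduce radioligand binding relative to DMSO baseline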
# Method in brief: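 Scintillation counts of filter-bound radioligand served as read-out after 1 h chemical dosing of human colonic membrane preparations. Activity was scored as signal loss against DMSO; initial duplicates at 25 uM, confirmatory concentration series afterward.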
# [5] = biological target: bovine Gamma-Aminobutyric Acid Type A Receptor Agonist (GABAR Agonist), GABRA1 (gene 780973) (UniProt P08219); experiment: NVS_LGIC_bGABAR_Agonist: NovaScreen (NVS) Ligand-Gated Ion Channel Assay for bovine Gamma-Aminobutyric Acid Type A Receptor Agonist (GABAR Agonist) (AID 2283338)
# Method in brief: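 Radioligand binding to bovine cerebellar membranes in agonist format, read by filter-based scintillation counting after 1 h. Primary screen in duplicate at 25 uM, with actives followed in concentration series. Gain of signal versus DMSO.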
# [6] = biological target: Estrogen receptor (Homo sapiens) (UniProt P03372); experiment: NVS_NR_hER: NovaScreen (NVS) Nuclear Receptor Binding Assay for human Estrogen Receptor (ER) (AID 2283348)
# Method in brief: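 Scintillation signal from bound radioligand was measured 18 hours after chemical addition to cell-free MCF7 protein extracts, with DMSO as baseline. Activity was scored as signal loss; compounds ran first at 25 uM in duplicate.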
# [7] = CCTE_Simmons_CellTiterGLO_HEK293T: Viability Assessment in CCTE's Assays for Thyroperoxidase (TPO) Inhibition, Simmons Lab (AID 2283665);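 on AC50: cells exposed to compound for 24 h before readout; actives reduce ATP signal below DMSO vehicle meaning cytotoxicity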
# Method in brief: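 HEK293T, 10 000 cells/well, DMEM + 1% FBS; 8-pt titration 5 nM–87.5 uM [final], 0.5% DMSO; 24 hr, 37C, 5% CO2; CellTiter-Glo luminescence; n=3 biological replicates.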
# [8] = read-out: alkyl and aryl transferase (GSTA2), GSTA2 (gene 2939); experiment: CLD_GSTA2_6hr: CellzDirect (CLD) Gene Expression Assay for alkyl and aryl transferase (GSTA2) at 6 hours (AID 2283666)
# Method in brief: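 Primary human hepatocytes from two donor preparations were dosed daily with fresh compound at multiple concentrations, 0.2% DMSO vehicle. GSTA2 mRNA was measured at 6 hours by qNPA chemiluminescence; induction fitted relative to DMSO, with cytotoxicity flagged morphologically.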
# [9] = biological target: Ratio of Nucleoli Translocation and Cytoplasm, AR (gene 367) (UniProt P10275); experiment: UPITT_HCI_U2OS_AR_TIF2_Nucleoli_Cytoplasm_Ratio_Agonist: University of Pittsburgh U2OS Androgen Receptor-Transcriptional Intermediary Factor 2 (AR-TIF2) Agonism High Content Imaging Assay for Ratio of Nucleoli Translocation and Cytoplasm (AID 2284000);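 further: hits raise the red nucleolar to cytoplasm ratio above vehicle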
# Method in brief: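 Read-out first: nucleolar-to-cytoplasm ratio of red (AR-RFP) signal, quantified by high-content imaging in U2OS cells co-expressing TIF2-GFP. Activity is scored as signal increase over DMSO. Single-point screening used 20 uM final (0.2% DMSO).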
# [10] = biological target: human AKT serine/threonine Kinase 1 (AKT1), AKT1 (gene 207) (UniProt P31749); experiment: NVS_ENZ_hAKT1: NovaScreen (NVS) Enzymatic Assay for human AKT serine/threonine Kinase 1 (AKT1) (AID 2283138)
# Method in brief: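 Recombinant AKT1, specific substrate, cell-free; 1 h; fluorescence intensity/electrophoretic mobility shift. Duplicate single-point 25 uM, then singleton CRC max 50 uM. DMSO = negative control/baseline; signal loss = inhibition.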
# [11] = CCTE_Shafer_MEA_acute_LDH: CCTE's Lactate Dehydrogenase Assay for Cytotoxicity in the Neural Acute Assay, Shafer Lab (AID 2284086);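 further: active means LDH release rises above DMSO vehicle level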
# Method in brief: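 Rat cortical neurons cultured on microelectrode arrays; baseline 40-min recording, compound added, second 40-min recording; medium then sampled for released LDH (colorimetric kit, 490 nm). DMSO = negative control.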
# [12] = biological target: human Peroxisome Proliferator-activated Receptor alpha (PPARa), PPARA (gene 5465) (UniProt Q07869); experiment: NVS_NR_hPPARa: NovaScreen (NVS) Nuclear Receptor Binding Assay for human Peroxisome Proliferator-activated Receptor alpha (PPARa) (AID 2283359);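 further: activity means loss of TR-FRET signal versus DMSO baseline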
# Method in brief: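 Chemicals were first screened in duplicate at 25 uM, and active ones were retested across concentration series. Binding was monitored by TR-FRET one hour after dosing, with decreased signal against DMSO counted as activity.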
# [13] = biological target: mouse Estrogen Receptor alpha (Era), Esr1 (gene 13982) (UniProt P19785); experiment: NVS_NR_mERa: NovaScreen (NVS) Nuclear Receptor Binding Assay for mouse Estrogen Receptor alpha (Era) (AID 2283378);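 further: hit means loss of bound radioligand signal relative to DMSO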
# Method in brief: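 Measurements come from scintillation counting after filtration, taken 18 hours after chemicals were added to a cell-free mouse Era preparation with radioligand. Screening was duplicate at 25 uM, with concurrent positive and negative controls and confirmatory concentration series for actives.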
# [14] = biological target: Retinoic acid receptor alpha (Homo sapiens) (UniProt P10276); experiment: NVS_NR_hRAR_Antagonist: NovaScreen (NVS) Nuclear Receptor Binding Assay for human Retinoic Acid Alpha Receptor Antagonism (RAR) (AID 2283358)
# Method in brief: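 TR-FRET, cell-free, antagonist format; 2 h incubation after dosing; DMSO = baseline; signal loss fitted; 25 uM duplicate primary, then conc. series.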
# [15] = system: turtle Androgen Receptor (AR), gene 101947425; experiment: ATG_trAR_XSP1: Attagene TRANS-FACTORIAL Multi-Species (XSP1) HepG2 Assay for turtle Androgen Receptor (AR) (AID 2283786)
# Method in brief: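 HepG2 cells transiently transfected with a turtle AR–GAL4 chimera and GAL4-UAS reporter, co-treated with 3 nM 6-alpha-fluorotestosterone for partial stimulation. Reporter mRNA is quantified at 24 h by RT-PCR and capillary electrophoresis, gain-of-signal versus DMSO.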
# [16] = biological target: GAL4 Transcription Factor (Internal Marker), GAL4 (gene 855828) (UniProt P04386); experiment: ATG_GAL4_XSP1: Attagene TRANS-FACTORIAL Multi-Species (XSP1) HepG2 Assay for GAL4 Transcription Factor (Internal Marker) (AID 2283789)
# Method in brief: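 HepG2 cells transiently transfected with multiplexed GAL4-UAS reporter units were exposed for 24 h with 3 nM 6-alpha-fluorotestosterone present. Reporter mRNA was quantified by RT-PCR, FAM labelling, HpaI digestion and capillary electrophoresis; background-control readout, gain-of-signal versus DMSO.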
# [17] = biological target: human Thyroid hormone Receptor alpha (TRa), THRA (gene 7067) (UniProt P10827); experiment: ATG_hTRa_XSP1: Attagene TRANS-FACTORIAL Multi-Species (XSP1) HepG2 Assay for human Thyroid hormone Receptor alpha (TRa) (AID 2283805)
# Method in brief: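 HepG2 cells transiently transfected with GAL4-UAS reporter units expressing chimeric NR-Gal4 proteins, dosed 24 hours with 3 nM 6-alpha-fluorotestosterone present. Reporter mRNA measured by RT-PCR and capillary electrophoresis; gain of signal fitted versus DMSO.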
# [18] = biological target: zebrafish Thyroid Hormone Receptor alpha (TRa), thraa (gene 30670) (UniProt Q98867); experiment: ATG_zfTRa_XSP2: Attagene TRANS-FACTORIAL Multi-Species (XSP1) HepG2 Assay for zebrafish Thyroid Hormone Receptor alpha (TRa) (AID 2283832);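 further: actives raise zebrafish TRa-Gal4 reporter transcript above DMSO baseline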
# Method in brief: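 Transient transfection of human HepG2 with GAL4-UAS reporter units, then 24 h chemical treatment. RNA isolated, reverse-transcribed, PCR-amplified, FAM-labelled, HpaI-digested and run on capillary electrophoresis. Gain-of-signal relative to DMSO.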
# [19] = read-out: Cytochrome P450 2B6 (Homo sapiens) (UniProt P20813); experiment: CLD_CYP2B6_24hr: CellzDirect (CLD) Gene Expression Assay for xenobiotic metabolism (CYP2B6) at 24 hours (AID 2283686)
# Method in brief: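 Primary human hepatocytes dosed daily for two days with fresh solutions, harvested at 24 hours; mRNA induction quantified by qNPA chemiluminescence, gain of signal vs 0.2% DMSO vehicle. Cytotoxicity annotated from phase-contrast morphology.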
# [20] = read-out: glucuronosyltransferase (UGT1A1), UGT1A1 (gene 54658); experiment: CLD_UGT1A1_24hr: CellzDirect (CLD) Gene Expression Assay for glucuronosyltransferase (UGT1A1) at 24 hours (AID 2283696)
# Method in brief: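 Primary human hepatocytes from two donor preparations were dosed (0.2% DMSO vehicle) and harvested at 24 h; UGT1A1 mRNA induction was quantified by chemiluminescent qNPA, fitted as gain relative to DMSO.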
structure (smiles),measurement,setting,value
C=CCC1=C(C)[C@@H](OC(=O)[C@@H]2[C@@H](C=C(C)C)C2(C)C)CC1=O,AC50,[1],inconclusive: 2.1 µM
same,AC50,[2],inconclusive: 11 µM
same,AC50,[3],inconclusive: 3.51 µM
ClC1C(Cl)C(Cl)C(Cl)C(Cl)C1Cl (stereo unspecified),outcome,[4],inactive
same,AC50,[5],inconclusive: 25 µM
CC1=C(C(=O)Nc2ccccc2)SCCO1,AC50,[6],inconclusive: 25 µM
same,AC50,[7],inconclusive: 53.8 µM
same,AC50,[8],inconclusive: 20 µM
same,AC50,[9],inconclusive: 50 µM
c1ccc(NNc2ccccc2)cc1,outcome,[10],inactive
same,AC50,[2],inconclusive: 32.6 µM
same,AC50,[11],inconclusive: 20 µM
CCCCC(CC)COC(=O)c1ccc(C(=O)OCC(CC)CCCC)c(C(=O)OCC(CC)CCCC)c1 (stereo unspecified),AC50,[4],inconclusive: 0.033 µM
same,AC50,[12],inconclusive: 25 µM
O=NN(c1ccccc1)c1ccccc1,outcome,[6],inactive
same,AC50,[13],inconclusive: 34.6 µM
COC(=O)c1ccccc1S(=O)(=O)NC(=O)Nc1nc(C)nc(OC)n1,outcome,[14],inactive
Nc1ccc([N+](=O)[O-])cc1,AC50,[10],inconclusive: 25 µM
same,AC50,[5],inconclusive: 0.547 µM
same,outcome,[9],inactive
O=C(CBr)OCc1ccccc1,outcome,[12],inactive
CCCC1COC(Cn2cncn2)(c2ccc(Cl)cc2Cl)O1 (stereo unspecified),outcome,[14],inactive
same,AC50,[15],inconclusive: 80.1 µM
same,AC50,[16],inconclusive: 100 µM
same,AC50,[17],inconclusive: 100 µM
same,AC50,[18],inconclusive: 170 µM
same,AC50,[9],active: 89.2 µM
CCOC(=O)C(O)(c1ccc(Cl)cc1)c1ccc(Cl)cc1,outcome,[6],inactive
same,outcome,[13],inactive
same,AC50,[9],active: 70.3 µM
CSC(=O)c1c(C(F)F)nc(C(F)(F)F)c(C(=O)SC)c1CC(C)C,outcome,[1],inactive
same,AC50,[15],inconclusive: 99.5 µM
same,AC50,[16],inconclusive: 176 µM
same,outcome,[17],inactive
same,AC50,[18],inconclusive: 100 µM
CCCCNC(=O)n1c(NC(=O)OC)nc2ccccc21,AC50,[2],active: 59.2 µM
same,outcome,[7],inactive
same,outcome,[19],inactive
same,outcome,[20],inactive
same,outcome,[9],inactive
same,AC50,[3],inconclusive: 0.0001 µM

# Reformatted with tabs: entries from further up
structure (smiles)	measurement	setting	value
C=CCC1=C(C)[C@@H](OC(=O)[C@@H]2[C@@H](C=C(C)C)C2(C)C)CC1=O	AC50	[1]	inconclusive: 2.1 µM
same	AC50	[2]	inconclusive: 11 µM
